{"source": "patent US4975433A", "about": "“Aminomethyl derivatives of biologically active substances and enhanced delivery thereof across topical membranes” (priority 1989, dated 1990)", "note": "Where two headings read alike, the source gives them in different places."}
{"smiles": "O=c1[nH]cc(F)c(=O)[nH]1", "note": "[VII, 5-Fluorouracil]", "values": [{"measurement": "mg present as parent drug in solution in donor phase", "setting": "IPM", "value": 0.0022, "unit": "mg"}, {"measurement": "mg present as parent drug in solution in donor phase", "setting": "PG", "value": 2.6, "unit": "mg"}]}
